The values below come from paper PMC13580404 (Molecular cell, 2026).

Sequences of proteins named here, by UniProt entry; tags and fusion partners are left off.
UniProt O00487: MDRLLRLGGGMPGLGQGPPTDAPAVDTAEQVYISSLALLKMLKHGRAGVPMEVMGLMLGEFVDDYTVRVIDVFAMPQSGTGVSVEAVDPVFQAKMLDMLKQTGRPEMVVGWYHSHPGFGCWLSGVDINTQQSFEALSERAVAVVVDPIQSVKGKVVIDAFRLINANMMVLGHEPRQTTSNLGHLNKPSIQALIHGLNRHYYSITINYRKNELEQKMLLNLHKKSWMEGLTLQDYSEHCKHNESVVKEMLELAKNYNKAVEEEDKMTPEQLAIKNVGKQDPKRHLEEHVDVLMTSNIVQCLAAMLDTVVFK
UniProt Q9Y244: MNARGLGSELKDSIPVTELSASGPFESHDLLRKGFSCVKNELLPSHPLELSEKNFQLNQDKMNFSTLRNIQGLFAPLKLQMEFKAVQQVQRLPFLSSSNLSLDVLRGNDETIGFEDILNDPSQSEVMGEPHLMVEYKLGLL

No constants are given. Whether binding was seen depends on the method and setting. Binding seen in cells or lysates may run through a third protein. These calls come from enrichment with a bait or labelling near it, and not all partners need be listed. No binding means not detected with the bait.

Sequences and labels used below:
B1: PSMG2 (protein, UniProt Q969U7 1-264)
chain: MFVPCGESAPDLAGFTLLMPAVSVGNVGQLAMDLIISTLNMSKIGYFYTDCLVPMVGNNPYATTEGNSTELSINAEVYSLPSRKLVALQLRSIFIKYKSKPFCEKLLSWVKSSGCARVIVLSSSHSYQRNDLQLRSTPFRYLLTPSMQKSVQNKIKSLNWEEMEKSRCIPEIDDSEFCIRIPGGGITKTLYDESCSKEIQMAVLLKFVSEGDNIPDALGLVEYLNEWLQILKPLSDDPTVSASRWKIPSSWRLLFGSGLPPALF
B2: PSMG1 (protein, UniProt O95456 1-288)
chain: MAATFFGEVVKAPCRAGTEDEEEEEEGRRETPEDREVRLQLARKREVRLLRRQTKTSLEVSLLEKYPCSKFIIAIGNNAVAFLSSFVMNSGVWEEVGCAKLWNEWCRTTDTTHLSSTEAFCVFYHLKSNPSVFLCQCSCYVAEDQQYQWLEKVFGSCPRKNMQITILTCRHVTDYKTSESTGSLPSPFLRALKTQNFKDSACCPLLEQPNIVHDLPAAVLSYCQVWKIPAILYLCYTDVMKLDLITVEAFKPILSTRSLKGLVKNIPQSTEILKKLMTTNEIQSNIYT

For this assay, the target named is RPN11/PSMD14 with an endogenous biotin-TEV purification handle (human (endogenous in HCT116)) (UniProt O00487). Description: affinity purification with mass spectrometry; HCT116 cells with biotin-TEV handle on RPN1, RPN11 or PSMB4, crosslinked in situ (4.4 mM SDA 25 min, 365 nm UV 10 s); lysate on streptavidin beads 2 h 4°C, on-bead digestion, label-free quantification against wild-type HCT116.
On to POMP (from UniProt Q9Y244 1-141), for which the binding entry was “no binding”. Take B1: the binding entry was “no binding”.

In the case of B2, the binding result was “no binding”.
